Laboratory results: US5434150A, “Condensed 5-membered heterocyclic compounds, processes for preparing them and pharmaceutical preparations containing these compounds” (Dr. Karl Thomae GmbH, priority 1991, dated 1995)
For at least one compound, name, drawing or mass did not settle the structure.

Molecular target: Human Thrombocytes
Experiment: Fibrinogen binding to human thrombocytes (fibrinogen binding test)
Settings: 125I fibrinogen; 50% inhibition of fibrinogen binding; gel-filtered human platelets, ADP, 20 min ambient temperature
Description: 1. Fibrinogen Binding to Human Thrombocytes The blood obtained by puncturing an antecubital vein is anticoagulated with trisodium citrate (final concentration: 13 mM) and centrifuged for 10 minutes at 170× g. The supernatant platelet-rich plasma is poured onto a Sepharose 2B column (Pharmacia) and eluted with a solution of 90 mM common salt, 14 mM trisodium citrate, 5 mM glucose and 50 mM tris(hydroxymethyl)aminomethane, adjusted to pH 7.4. The gel-filtered platelets (GFP) appearing before the plasma proteins are used for the binding experiments. 50 μl of a 60 mM calcium chloride solution, 50 μl of a 0.6 mM adenosine diphosphate solution, 100 μl of substance solution or solvent and 50 μl of fibrinogen solution (containing 3 μg of ^125 fibrinogen) are added to 750 μl of GFP and incubated for 20 minutes at ambient temperature. The non-specific binding is determined in the presence of 3 mg/ml of cold fibrinogen. 900 μl of the incubated material are carefully pipetted onto 250 μl of silicon oil (AP 38: AR 20, 1:2 v/v, Wacker Chemie) in Eppendorf tubes and centrifuged for 2 minutes at 10,000× g. The aqueous supernatant and some of the oil are drawn off, the tips of the tubes are cut off together with the platelet pellet and the quantity of bound fibrinogen is determined in a gamma counter. […]

N=C(N)c1ccc(-c2nc3cc(C(=O)NCCC(=O)O)ccc3n2CCCN)cc1 [1(76), 2-(4-amidino-phenyl)-1-(3-amino-propyl)-5-[(2-carboxy-ethyl)-aminocarbonyl]-benzimidazole-diacetate]
IC50: 28 nM
